Measurements: the supplement of paper PMC8728848
Some of the results follow.

Legend:
Experiment in all cases: glycan array binding signal (z-score within array); higher = stronger binding
Conditions in all cases: glycan notation: IUPAC condensed, linker removed
[1] = molecular target: Gal(b1-3)GlcNAc(b1-2)Man(a1-3)[Gal(b1-3)GlcNAc(b1-2)Man(a1-6)]Man(b1-4)GlcNAc(b1-4)[Fuc(a1-6)]GlcNAc
In short: (§1)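 Negative Z-scores can be read as non-binding. The Z-score is calculated within each array and then averaged across arrays of one protein sequence at different concentrations or buffers and across linkers. Arrays, 3228 in all, were curated from the Consortium for Functional Glycomics database and kept only where the protein sequence was available.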

[2] = molecular target: Gal(b1-3)GlcNAc(b1-2)Man(a1-3)[GlcNAc(b1-4)][Gal(b1-3)GlcNAc(b1-2)Man(a1-6)]Man(b1-4)GlcNAc(b1-4)GlcNAc
In short: as §1

[3] = molecular target: Gal(b1-3)GlcNAc(b1-2)[Gal(b1-3)GlcNAc(b1-6)]Man(a1-6)[Gal(b1-3)GlcNAc(b1-2)Man(a1-3)]Man(b1-4)GlcNAc(b1-4)GlcNAc
In short: as §1

[4] = molecular target: Gal(b1-3)GlcNAc(b1-3)Gal(b1-3)GlcNAc
In short: as §1

[5] = molecular target: Gal(b1-3)GlcNAc(b1-3)Gal(b1-4)Glc
In short: as §1

[6] = molecular target: Gal(b1-3)GlcNAc(b1-3)Gal(b1-4)GlcNAc
In short: as §1

[7] = molecular target: Gal(b1-3)GlcNAc(b1-3)Gal(b1-4)GlcNAc(b1-2)Man(a1-3)[Gal(b1-3)GlcNAc(b1-3)Gal(b1-4)GlcNAc(b1-2)Man(a1-6)]Man(b1-4)GlcNAc(b1-4)GlcNAc
In short: as §1

[8] = molecular target: Gal(b1-3)GlcNAc(b1-3)Gal(b1-4)GlcNAc(b1-2)[Gal(b1-3)GlcNAc(b1-3)Gal(b1-4)GlcNAc(b1-6)]Man(a1-6)[Gal(b1-3)GlcNAc(b1-3)Gal(b1-4)GlcNAc(b1-2)Man(a1-3)]Man(b1-4)GlcNAc(b1-4)[Fuc(a1-6)]GlcNAc
In short: as §1

[9] = molecular target: Gal(b1-3)GlcNAc(b1-3)Gal(b1-4)GlcNAc(b1-3)Gal(b1-4)GlcNAc(b1-2)[Gal(b1-3)GlcNAc(b1-3)Gal(b1-4)GlcNAc(b1-3)Gal(b1-4)GlcNAc(b1-6)]Man(a1-6)[Gal(b1-3)GlcNAc(b1-3)Gal(b1-4)GlcNAc(b1-3)Gal(b1-4)GlcNAc(b1-2)Man(a1-3)]Man(b1-4)GlcNAc(b1-4)[Fuc(a1-6)]GlcNAc
In short: as §1

[10] = molecular target: Gal(b1-3)GlcNAc(b1-3)Gal(b1-4)GlcNAc(b1-6)[Gal(b1-3)GlcNAc(b1-3)]Gal(b1-4)Glc
In short: as §1

[11] = molecular target: Gal(b1-3)GlcNAc(b1-3)Gal(b1-4)[Fuc(a1-3)]GlcNAc
In short: as §1

[12] = molecular target: Gal(b1-3)GlcNAc(b1-3)Gal(b1-4)[Fuc(a1-3)]GlcNAc(b1-6)[Gal(b1-3)GlcNAc(b1-3)]Gal(b1-4)Glc
In short: as §1

[13] = molecular target: Gal(b1-3)GlcNAc(b1-3)GalNAc
In short: as §1

[14] = molecular target: Gal(b1-3)GlcNAc(b1-6)Gal(b1-4)GlcNAc
In short: as §1

[15] = molecular target: Gal(b1-3)GlcNAc(b1-6)GalNAc
In short: as §1

[16] = molecular target: Gal(b1-3)GlcNAc(b1-6)[Gal(b1-3)]GalNAc
In short: as §1

Gal(b1-3)GlcNAc6S = molecular target: Gal(b1-3)GlcNAc6S
In short: as §1

[17] = molecular target: Gal(b1-3)[Fuc(a1-4)]GlcNAc
In short: as §1

[18] = molecular target: Gal(b1-3)[Fuc(a1-4)]GlcNAc(b1-2)Man
In short: as §1

[19] = molecular target: Gal(b1-3)[Fuc(a1-4)]GlcNAc(b1-2)Man(a1-3)[Gal(b1-3)[Fuc(a1-4)]GlcNAc(b1-2)Man(a1-6)]Man(b1-4)GlcNAc(b1-4)[Fuc(a1-6)]GlcNAc
In short: as §1

[20] = molecular target: Gal(b1-3)[Fuc(a1-4)]GlcNAc(b1-3)Gal(b1-3)[Fuc(a1-4)]GlcNAc
In short: as §1

[21] = molecular target: Gal(b1-3)[Fuc(a1-4)]GlcNAc(b1-3)Gal(b1-4)[Fuc(a1-3)]GlcNAc
In short: as §1

[22] = molecular target: Gal(b1-3)[Fuc(a1-4)]GlcNAc(b1-6)GalNAc
In short: as §1

[23] = molecular target: Gal(b1-3)[GlcNAc(b1-6)]GalNAc
In short: as §1

[24] = molecular target: Gal(b1-3)[Neu5Ac(a2-6)]GalNAc
In short: as §1

[25] = molecular target: Gal(b1-3)[Neu5Ac(a2-6)]GlcNAc(b1-4)Gal(b1-4)Glc
In short: as §1

[26] = molecular target: Gal(b1-3)[Neu5Ac(b2-6)]GalNAc
In short: as §1

Gal(b1-4)Gal = molecular target: Gal(b1-4)Gal
In short: as §1

[27] = molecular target: Gal(b1-4)GalNAc(a1-3)[Fuc(a1-2)]Gal(b1-4)GlcNAc
In short: as §1

[28] = molecular target: Gal(b1-4)GalNAc(b1-3)[Fuc(a1-2)]Gal(b1-4)GlcNAc
In short: as §1

Gal(b1-4)Glc = molecular target: Gal(b1-4)Glc
In short: as §1

Gal(b1-4)Glc6S = molecular target: Gal(b1-4)Glc6S
In short: as §1

Gal(b1-4)GlcNAc = molecular target: Gal(b1-4)GlcNAc
In short: as §1

[29] = molecular target: Gal(b1-4)GlcNAc(a1-6)Gal(b1-4)GlcNAc
In short: as §1

Gal(b1-4)GlcNAc(b1-2)Man = molecular target: Gal(b1-4)GlcNAc(b1-2)Man
In short: as §1

[30] = molecular target: Gal(b1-4)GlcNAc(b1-2)Man(a1-3)Man(b1-4)GlcNAc(b1-4)GlcNAc
In short: as §1

[31] = molecular target: Gal(b1-4)GlcNAc(b1-2)Man(a1-3)[Gal(b1-4)GlcNAc(b1-2)Man(a1-6)]Man(b1-4)GlcNAc(b1-4)GlcNAc
In short: as §1

[32] = molecular target: Gal(b1-4)GlcNAc(b1-2)Man(a1-3)[Gal(b1-4)GlcNAc(b1-2)Man(a1-6)]Man(b1-4)GlcNAc(b1-4)[Fuc(a1-6)]GlcNAc
In short: as §1

[33] = molecular target: Gal(b1-4)GlcNAc(b1-2)Man(a1-3)[Gal(b1-4)GlcNAc(b1-2)Man(a1-6)][Gal(b1-4)GlcNAc(b1-4)]Man(b1-4)GlcNAc(b1-4)[Fuc(a1-6)]GlcNAc
In short: as §1

[34] = molecular target: Gal(b1-4)GlcNAc(b1-2)Man(a1-3)[Gal(b1-4)GlcNAc(b1-2)Man(a1-6)][GlcNAc(b1-4)]Man(b1-4)GlcNAc(b1-4)[Fuc(a1-6)]GlcNAc
In short: as §1

[35] = molecular target: Gal(b1-4)GlcNAc(b1-2)Man(a1-3)[GlcNAc(b1-2)Man(a1-6)]Man(b1-4)GlcNAc(b1-4)GlcNAc
In short: as §1

[36] = molecular target: Gal(b1-4)GlcNAc(b1-2)Man(a1-3)[GlcNAc(b1-4)][Gal(b1-4)GlcNAc(b1-2)Man(a1-6)]Man(b1-4)GlcNAc(b1-4)GlcNAc
In short: as §1

[37] = molecular target: Gal(b1-4)GlcNAc(b1-2)Man(a1-3)[Man(a1-6)]Man(b1-4)GlcNAc(b1-4)GlcNAc
In short: as §1

[38] = molecular target: Gal(b1-4)GlcNAc(b1-2)Man(a1-6)Man(b1-4)GlcNAc(b1-4)GlcNAc
In short: as §1

[39] = molecular target: Gal(b1-4)GlcNAc(b1-2)Man(a1-6)[GlcNAc(b1-2)Man(a1-3)]Man(b1-4)GlcNAc(b1-4)GlcNAc
In short: as §1

B1: Sp8391B-bot-388-20-388 (Bacteroides ovatus) (protein)
chain: GCQNNDENEQHYDNKLFISASNFTKEILFKAGDTNVETGLSVAIAKPEEHDIKVTMSPAPELLSTYKLAYYDETAVLLSEEHYSMPETSTTIKSGSIVSPELPIEFINTGELDIKTTYVLPVTIKSVEGIGVLQSAKTYYYVFRGASLINVVCNISRNRAYPDFKNDSKFNNLTENTMEILFKANSFPNTLNTLMGIESNYLLRIGDATIPNNQLQVATSVNNCTSADLQLESGKWYHVAVAFNKGNVKVYINGVEKLSGSTGKSSVSLGAKHTNEEDGSRCFWVGYSYKDDRYFDGVVSEVRIWNRALTAEEIQATNHFYTIEPESEGLIAYWKFDEGSGTVAKDYSVSGYDLTIEKEPKWESVSLPQ
glycan array binding signal (z-score) [1]: 0.143
glycan array binding signal (z-score) [2]: 0.252
glycan array binding signal (z-score) [3]: 0.113
glycan array binding signal (z-score) [4]: -0.653
glycan array binding signal (z-score) [5]: 0.105
glycan array binding signal (z-score) [6]: -0.661
glycan array binding signal (z-score) [7]: 1.6
glycan array binding signal (z-score) [8]: -0.16
glycan array binding signal (z-score) [9]: -0.127
glycan array binding signal (z-score) [10]: 0.879
glycan array binding signal (z-score) [11]: 0.799
glycan array binding signal (z-score) [12]: 12.8
glycan array binding signal (z-score) [13]: -0.114
glycan array binding signal (z-score) [14]: -0.02
glycan array binding signal (z-score) [15]: 0.299
glycan array binding signal (z-score) [16]: 0.989
glycan array binding signal (z-score) (Gal(b1-3)GlcNAc6S): -0.822
glycan array binding signal (z-score) [17]: -0.224
glycan array binding signal (z-score) [18]: 0.017
glycan array binding signal (z-score) [19]: 1.1
glycan array binding signal (z-score) [20]: -0.572
glycan array binding signal (z-score) [21]: 0.392
glycan array binding signal (z-score) [22]: 0.047
glycan array binding signal (z-score) [23]: -0.541
glycan array binding signal (z-score) [24]: -0.208
glycan array binding signal (z-score) [25]: -0.044
glycan array binding signal (z-score) [26]: -0.578
glycan array binding signal (z-score) (Gal(b1-4)Gal): -0.849
glycan array binding signal (z-score) [27]: -1.68
glycan array binding signal (z-score) [28]: -1.21
glycan array binding signal (z-score) (Gal(b1-4)Glc): -0.183
glycan array binding signal (z-score) (Gal(b1-4)Glc6S): -0.694
glycan array binding signal (z-score) (Gal(b1-4)GlcNAc): 0.022
glycan array binding signal (z-score) [29]: 1.56
glycan array binding signal (z-score) (Gal(b1-4)GlcNAc(b1-2)Man): 0.113
glycan array binding signal (z-score) [30]: -0.192
glycan array binding signal (z-score) [31]: -0.612
glycan array binding signal (z-score) [32]: 0.164
glycan array binding signal (z-score) [33]: -0.182
glycan array binding signal (z-score) [34]: -0.897
glycan array binding signal (z-score) [35]: -0.556
glycan array binding signal (z-score) [36]: -0.747
glycan array binding signal (z-score) [37]: -0.622
glycan array binding signal (z-score) [38]: -0.661
glycan array binding signal (z-score) [39]: -0.167
